Assay: general procedure: peptide synthesis; Kieselguhr supported polydimethylacrylamide resin (0.09 mmol/g loading); DCC/1-hydroxybenzotriazole; pentafluorophenyl esters
Settings: coupling step, h.p.l.c.

Row | Substance | final HPLC purity [%]
1 | N-[N^1 -[N-(5-aminopentanoyl)-L-phenylalanyl-L-phenylalanyl]-4-methyl-1-oxo-2S-(6-oxo-5S-1,7-diazaspiro[4.4]nonan-7-yl)pentyl]-L-homophenylalanamide | 100
2 | N-[N^1 -[pyroglutamyl-L-phenylalanyl-L-phenylalanyl]-4-methyl-1-oxo-2S-(6-oxo-5S- 1,7-diazaspiro[4.4]nonan-7-yl)pentyl]-L-methionamide | 99
3 | N-[N^1 -[N-(5-aminopentanoyl)-L-phenylalanyl-L-phenylalanyl]-4-methyl-1-oxo-2S-(6-oxo-5S-1,7-diazaspiro[4.4]nonan-7-yl)pentyl]-L-phenylalanamide | 97.6
4 | N-[N^1 -[N-(5-aminopentanoyl)-L-phenylalanyl-L-phenylalanyl]4-methyl-1-oxo-2S-(7- oxo-6S-1,8-diazaspiro[5.4]decan-8-yl)pentyl]-L-methionamide | 100
5 | N-[N^1 -[N-(5-aminopentanoyl)-L-phenylalanyl-L-phenylalanyl]-4-methyl-1-oxo-2S-(6-oxo-5S-1,7-diazaspiro[4.4]nonan-7-yl)pentyl]-D-methionamide | 99
6 | N-[N^1 -[N-(5-aminopentanoyl)-L-phenylalanyl-L-phenylalanyl]-4-methyl-1-oxo-2R-(6-oxo-5S-1,7-diazaspiro[4.4]nonan-7-yl)pentyl]-L-methionamide | 100
7 | N-[N^1 -[N-(5-aminopentanoyl)-L-phenylalanyl-L-phenylalanyl]-4-methyl-1-oxo-2S-(6-oxo-5S-1,7-diazaspiro[4.4]nonan-7-yl)-pentyl]-L-tryptophanamide | 99
8 | N-[N^1 -[N-(5-aminopentanoyl)-L-phenylalanyl-L-phenylalanyl]-4-methyl-1-oxo-2S-(6-oxo-5S-1,7-diazaspiro[4.4]nonan-7-yl)pentyl]-L-cyclohexylalanamide | 99.8

Same assay, conditions: whole synthesis, h.p.l.c., scale of the general procedure 1.5 g resin

Row | Substance | final HPLC purity [%]
9 | N-[N^1 -[L-pyroglutamyl-L-prolyl-L-aspartyl-L-prolyl-L-glutaminyl-L-glutaminyl-L- phenylalanyl-L-phenylalanyl]-4-methyl-1-oxo-2S-(6-oxo-5S-1,7-diazaspiro[4.4]nonan-7-yl)pentyl]-L-tryptophanamide | 100
10 | N-[N^1 -[L-phenylalanyl]-4-methyl-1-oxo-2S-(6-oxo-5S-1,7-diazaspiro[4.4]nonan-7-yl)pentyl]-L-tryptophanamide | 80
11 | N-[N^1 -[L-pyroglutamyl-L-prolyl-L-aspartyl-L-prolyl-L-asparagyl-L-alanyl-L-phenylalanyl-L-tyrosyl]-4-methyl-1-oxo-2S-(6-oxo-5S-1,7-diazaspiro[4.4]nonan-7-yl)pentyl]-L-tryptophanamide | 99
12 | N-[N^1 -[L-pyroglutamyl-L-prolyl-L-aspartyl-L-prolyl-L-asparaginyl-L-lysyl-L-phenylalanyl-L-tyrosyl]-4-methyl-1-oxo-2S-(6-oxo-5S-1,7-diazaspiro[4.4]nonan-7- yl)pentyl]-L-tryptophanamide | 97
13 | N-[N^1 -[L-glutaminyl-L-glutaminyl-L-phenylalanyl-L-Phenylalanyl]-4-methyl-1-oxo- 2S-(6-oxo-5S-1,7-diazaspiro[4.4]nonan-7-yl)pentyl]-L-tryptophanamide | 78
14 | N-[N^1 -[L-phenylalanyl-L-phenylalanyl]-4-methyl-1-oxo-2S-(6-oxo-5S-1,7-diazaspiro[4.4]nonan-7-yl)pentyl]-L-tryptophanamide | 87
15 | N-[N^1 -[L-pyroglutamyl-L-alanyl-L-aspartyl-L-prolyl-L-asparaginyl-L-methionyl-L- phenylalanyl-L-tyrosyl]-4-methyl-1-oxo-2S-(6-oxo-5S-1,7-diazaspiro[4.4]nonan-7-yl)pentyl]-L-tryptophanamide | 96
16 | N-[N^1 -[L-lysyl-L-prolyl-L-glutaminyl-L-glutaminyl-L-phenylalanyl-L-phenylalanyl]-4-methyl-1-oxo-2S-(6-oxo-5S-1,7-diazaspiro[4.4]nonan-7-yl)pentyl]-L-tryptophanamide | 71
17 | N-[N^1 -[L-Arginyl-L-prolyl-L-lysyl-L-prolyl-L-glutaminyl-L-glutaminyl-L-phenylalanyl-L-phenylalanyl]-4-methyl-1-oxo-2S-(6-oxo-5S-1,7-diazaspiro[4.4]nonan-7-yl)-pentyl]-L-tryptophanamide. | 99
18 | N-[N^1 -[L-pyroglutamyl-L-alanyl-L-aspartyl-L-prolyl-L-asparaginyl-L-glutaminyl-L-phenylalanyl-L-tyrosyl]-4-methyl-1-oxo-2S-(6-oxo-5S-1,7-diazaspiro[4.4]nonan-7-yl)pentyl]-L-tryptophanamide | 99
19 | N-[N^1 [L-arginyl-L-prolyl-L-lysyl-L-prolyl-L-glutaminyl-L-glutaminyl-L-phenylalanyl-L-phenylalanyl]-4-methyl-1-oxo-2S-(6-oxo-5S-1,7-diazaspiro[4.4]nonan-7- yl)pentyl]-L-methionamide | 97
20 | N-[N^1 -[L-pyroglutamyl-L-alanyl-L-aspartyl-L-prolyl-L-asparaginyl-L-lysyl-L-phenylalanyl-L-tyrosyl]-4-methyl-1-oxo-2S-(6-oxo-5S-1,7-diazaspiro[4.4]nonan-7- yl)pentyl]-L-trytophanamide | 99
21 | N-[N^1 -[L-prolyl-L-glutaminyl-L-glutaminyl-L-phenylalanyl-L-phenylalanyl]-4-methyl-1-oxo-2S-(6-oxo-5S-1,7-diazaspiro[4.4]nonan-7-yl)pentyl]-L-methionamide | 99
22 | N-[N^1 -[pyroglutamyl-L-prolyl-L-lysyl-L-prolyl-L-glutaminyl-L-glutaminyl-L-phenylalanyl-L-phenylalanyl]-4-methyl-1-oxo-2S-(6-oxo-5S-1,7-diazaspiro[4.4]nonan-7-yl)pentyl]-L-tryptophanamide | 97

Same assay, conditions: whole synthesis, h.p.l.c., scale of the general procedure 1.5 g resin, trifluoroacetate salt

Row | Substance | final HPLC purity [%]
23 | N-[N^1 -[L-tyrosyl-L-phenylalanyl-L-tyrosyl]-4-methyl-1-oxo-2S-(6-oxo-5S-1,7-diazaspiro[4.4]nonan-7-yl)pentyl]-L-tryptophanamide, trifluoroacetate salt | 99
24 | N-[N^1 -[N-(acetyl)-L-lysyl-L-phenylalanyl-L-tyrosyl]-4-methyl-1-oxo-2S-(6-oxo-5S-1,7-diazaspiro[4.4]nonan-7-yl)pentyl]-L-tryptophanamide, trifluoroacetate salt | 95

— patent US5166136 (dated 1992)
